# Test results: patent US11505523B2, “HDAC8 inhibitors for treating cancer” (City of Hope, priority 2013, dated 2022)
# Tests used:
# CL1-5 cells = experiment: Cytotoxicity / anti-proliferative activity in CL1-5 lung cancer cells; conditions: read-out: Cytotoxicity IC50 Cl1-5; mean SD of three determinations
# H1299 cells = experiment: Cytotoxicity / anti-proliferative activity in H1299 lung cancer cells; conditions: read-out: Cytotoxicity IC50 H1299; mean SD of three determinations
# Cl1-1 cells = experiment: Cytotoxicity / anti-proliferative activity in CL1-1 lung cancer cells; conditions: read-out: Cytotoxicity IC50 Cl1-1; mean SD of three determinations
structure (smiles),measurement,setting,value
"O=C(CCCCCCC(=O)Nc1ccccc1)NO [SAHA, reference compound]",IC50,CL1-5 cells,6.2 ± 0.6 nM
same,IC50,H1299 cells,4.9 ± 0.3 nM
same,IC50,Cl1-1 cells,2.9 ± 0.5 nM
